PubChem BioAssay AID1224830, NIAID | 2016
Here is one part, drawn at random, of about 18,000 deposited reagents. Over the whole deposit, about 2,900 (16%) were called active. 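Calls are made per well; low scores hint the gene aids the LPS response, high scores that it dampens it.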 Repeated entries: four replicate wells of each siRNA pool.

- Aim: 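Host factors that control LPS-induced TNF expression in human macrophages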 (primary screen)
- System: human THP-1 monocytic leukaemia cells, TNF dual-luciferase reporter clone, PMA-differentiated to macrophage-like cells
- Reagent: siRNA pool against human genes, 50 nM
- Timing: LPS for 4 h, given about 3 days after siRNA transfection
- Conditions: bacterial LPS (TLR4 ligand), 10 ng/ml
- Detection: 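TNF firefly reporter luminescence divided by renilla, normalised to the plate median, then turned into a robust z-score for each replicate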
- Direction: TNF reporter robust z-score: higher = stronger TNF reporter response to LPS
- Active means: 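a well is active when its z-score exceeds 2.8 or falls below -1.5; control wells carry no call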

Against TMEM54 (GeneID 113452), the entry reads TNF reporter robust z-score 0.41; inactive.
For TMEM54 (GeneID 113452) the deposit lists TNF reporter robust z-score -0.25; inactive.
Depletion of TMEM54 (GeneID 113452) came out at: TNF reporter robust z-score -0.55; inactive.
Knock-down of TMEM54 (GeneID 113452) gave: TNF reporter robust z-score -0.16; inactive.
Against TPRX1 (GeneID 284355) the deposit lists TNF reporter robust z-score 0.82; inactive.
After knock-down of TPRX1 (GeneID 284355) the results were TNF reporter robust z-score 0.07; inactive.
Against TPRX1 (GeneID 284355), the values are TNF reporter robust z-score -0.03; inactive.
TPRX1 (GeneID 284355) gave TNF reporter robust z-score 0.18; inactive.

The results go on:
PRDM12 (GeneID 59335) scored TNF reporter robust z-score -0.27; inactive.
Depletion of PRDM12 (GeneID 59335) gave: TNF reporter robust z-score 0.5; inactive.
With knock-down of PRDM12 (GeneID 59335), the record shows TNF reporter robust z-score -1.36; inactive.
PRDM12 (GeneID 59335) scored TNF reporter robust z-score 0.09; inactive.
Against DTYMK (GeneID 1841), the entry reads TNF reporter robust z-score -0.73; inactive.
DTYMK (GeneID 1841) gave TNF reporter robust z-score -0.77; inactive.
Depletion of DTYMK (GeneID 1841) came out at: TNF reporter robust z-score 1.81; inactive.
With knock-down of DTYMK (GeneID 1841), the screen gave TNF reporter robust z-score -0.58; inactive.
With knock-down of GARIN2 (GeneID 161142) the results were TNF reporter robust z-score -0.14; inactive.
After knock-down of GARIN2 (GeneID 161142), the screen gave TNF reporter robust z-score -0.41; inactive.
For GARIN2 (GeneID 161142), the entry reads TNF reporter robust z-score -0.7; inactive.
For GARIN2 (GeneID 161142) the deposit lists TNF reporter robust z-score -0.1; inactive.
